Biological target: T1, His6-TBL1(1-90) (human, UniProt O60907-2 1-90)
T1 sequence (looked up): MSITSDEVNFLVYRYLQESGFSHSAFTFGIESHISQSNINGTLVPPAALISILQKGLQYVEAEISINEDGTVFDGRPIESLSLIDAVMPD
Experiment: fluorescence polarisation

Kd: 950 nM
B1: BODIPY labeled chimeric GPS2(1-49)–SMRT(220-260) (peptide, UniProt Q13227 1-49, looked up)
chain: MPALLERPKLSNAMARALHRHIMMERERKRQEEEEVDKMMEQKMKEEQEESKHRSLVQIIYDENRKKAEAAHRILEGLGPQVELPLYNQP
modifications: BODIPY label (position not given)

— article PMC3232451 (Nature structural & molecular biology, 2011)
